According to PubChem BioAssay AID540276 (National Center for Advancing Translational Sciences (NCATS), 2011):
Screen size: about 300,000 compounds; about 5,400 (1.8%) were called active. The inconclusive results got no clear call from the source; some entries with a clear call stand among them for comparison. Calls follow the shape of the full dose curve; tested in HEK293 cells. Potencies of inconclusive entries are doubtful fits and often do not repeat.

assay: qHTS for inhibitors of binding or entry into cells for Marburg Virus; conditions: Marburg virus pseudotyped entry inhibition, cell reporter; activity change, negative = inhibition: at 37.8 µM (top of the series) unless noted
% is scaled to controls: 0 for no effect and ±100 for the full control effect; potency is read from the fitted curve at half-maximal effect.

Structure (SMILES)	Potency	activity change, negative = inhibition
CC(C)COC(=O)c1cccc2c1-c1ccccc1/C2=N\O	inconclusive: 25.9 µM [inhibitor, partial curve, poor fit]	
O=C(Nc1ccc(F)cc1F)c1cc2n(n1)C(C(F)(F)F)C1CCCCC1N2 (configuration not stated)	inconclusive: 0.501 µM [activator, partial curve, poor fit]	
COCCN(Cc1nnc(-c2cccs2)o1)C(=O)CN1C(=O)NC2(CCCCC2)C1=O		inactive: 2.44% [at 46.1 µM]
COCCSc1nnc(NC(=O)Cc2ccc(OC)c(OC)c2)s1	inconclusive: 8.91 µM [inhibitor, partial curve, poor fit]	
CCOC(=O)N/N=C/c1cc(C)n(-c2ccccc2)c1C		inactive: 1.26%
Cc1nn(CCC#N)c(NC(=O)c2ccc(Cl)cc2Cl)c1P(=O)(Nc1ccc([N+](=O)[O-])cc1)N1CCOCC1 (configuration not stated)	inconclusive: 1.03 µM [inhibitor, single point]	
CCC(=O)Nc1cccc(NC(=O)CSc2nnnn2C2CCCC2)c1	inconclusive: 0.116 µM [inhibitor, full curve, poor fit]	
Cc1ccc(C)c(NC(=S)NC(NC(=O)OCc2ccccc2)C(Cl)(Cl)Cl)c1 (configuration not stated)	inconclusive: 25.1 µM [inhibitor, single point]	
Cc1cc(N2CCN(S(=O)(=O)c3ccc(Br)cc3)CC2)n2ncnc2n1		inactive: -0.869% [at 46.1 µM]
O=C(O)c1ccc(Cl)c(S(=O)(=O)N(Cc2ccccc2)c2ccc(Cl)cc2)c1	inconclusive: 3.98 µM [inhibitor, partial curve, poor fit]	
CCOC(=O)c1nnc2cc(-c3ccccc3)nn2c1C	inconclusive: 35.5 µM [activator, partial curve, poor fit]	
O=C(CN(Cc1cccs1)C(=O)CNS(=O)(=O)c1ccc(Cl)cc1)NCc1ccco1		inactive: -6.84%
COc1ccc(Cl)cc1NC(=O)C(=O)NCc1ccncc1		inactive: -0.199%
CCOc1cc(CNCc2cc(OC)cc(OC)c2)ccc1OC	inconclusive: 35.5 µM [inhibitor, single point]	
Cc1ccccc1-n1c(SCC(=O)N(C)C2CCS(=O)(=O)C2)nc2ccccc2c1=O (configuration not stated)		inactive: 17.6% [at 46.1 µM]
Cc1[nH]n(-c2ccccc2)c(=O)c1/C=N/O		inactive: 1.19%
CC(C)(C)C(=O)OC/C(N)=N/OC(=O)c1ccc(Cl)cc1		inactive: 1.32% [at 46.1 µM]
CC1CCN(S(=O)(=O)c2ccc3c(c2)N(CC(=O)NCCCN(Cc2ccccc2)C(C)C)C(=O)CO3)CC1	inconclusive: 4.47 µM [inhibitor, partial curve, poor fit]	
CCOC(=O)[C@H](C)Sc1nc(-c2cccs2)ccc1C#N		inactive: -0.897%
Cc1cccc(NC(=O)CSc2nnc(CNC(=O)c3ccco3)n2C)c1		inactive: 16.2% [at 46.1 µM]
N/C(=N\OC(=O)c1ccco1)c1cccc(Br)c1		inactive: -6.71%
O=C(COc1ccccc1O)NNc1ccccc1		inactive: 7.84%
Cc1cccc(OCC(=O)Nc2ccc3oc(=O)ccc3c2)c1	inconclusive: 7.08 µM [activator, full curve, poor fit]	

Structure (SMILES)	Potency	activity change, negative = inhibition
Cc1ccc(Cn2nnc(C(=O)Nc3ccc(F)c(F)c3)c2N)cc1	inconclusive: 35.5 µM [inhibitor, single point]	
CCCCCCOC(=O)C(C#N)c1nc2ccccc2nc1N1CCN(C)CC1 (configuration not stated)	inconclusive: 18.3 µM [inhibitor, single point]	
Cc1cccc(Nc2nnc(SCC(=O)NC3CCCc4ccccc43)s2)c1 (configuration not stated)	inconclusive: 22.4 µM [inhibitor, single point]	
O=C(CSc1ncccn1)N/N=C/c1cccc([N+](=O)[O-])c1	inconclusive: 0.631 µM [activator, full curve, poor fit]	
COc1ccc(C(=O)NNC(=S)NC(=O)c2ccc(Br)o2)cc1OC	inconclusive: 6.31 µM [activator, single point]	
COc1cc(C(c2c(C(=O)O)[nH]c3ccccc23)c2c(C(=O)O)[nH]c3ccccc23)ccc1OCc1ccccc1	inconclusive: 35.5 µM [inhibitor, single point]	
O=C(CSc1nc(-c2ccccc2)no1)N1CCCCC1	inconclusive: 8.91 µM [activator, partial curve, poor fit]	
CCOC(=O)N1CCc2c(sc3c2c(=O)n(CCc2ccccc2)c(=O)n3Cc2ccc(F)cc2)C1	inconclusive: 0.794 µM [inhibitor, full curve, poor fit]	
Cc1ccc(C(c2nnnn2CS(=O)(=O)c2ccc(C)cc2)N2CCN(c3ncccn3)CC2)cc1 (configuration not stated)	inconclusive: 14.6 µM [inhibitor, single point]	
O=C1Cc2ccccc2Sc2c(OCCN3CCCCC3)cccc21	inconclusive: 18.4 µM [inhibitor, single point]	
CCOC(=O)CSc1nc2ccc(C)cc2cc1C#N	inconclusive: 1.03 µM [activator, partial curve, poor fit]	
CCc1ccc(-c2csc(NC(=O)C3CCCO3)c2C(=O)OC(C)C)cc1 (configuration not stated)	inconclusive: 6.31 µM [inhibitor, partial curve, poor fit]	
Cc1ccc(CN(C(=O)COc2cccc([N+](=O)[O-])c2)c2ccccn2)cc1	inconclusive: 35.5 µM [inhibitor, single point]	
CC(=O)NC(CCS(C)(=O)=O)C(=O)Nc1nc(C)cs1 (configuration not stated)	inconclusive: 6.51 µM [inhibitor, single point]	
Cc1ccc(Nc2nnc(-c3ccc(N4CCOCC4)c([N+](=O)[O-])c3)c3ccccc23)cc1	inconclusive: 35.5 µM [inhibitor, single point]	
Cc1ccc2c(Cl)c(C)c(N3CCOCC3)nc2n1		inactive: 29.7% [at 46.1 µM]
Cc1cc(NC(=O)C2CCCCC2)nc2c1c(=O)oc1ccccc12	inconclusive: 28.2 µM [inhibitor, single point]	
CC(C)N1C(=O)/C(=C/C=C/c2ccco2)C(=O)N(Cc2ccco2)C1=O	active: 3.98 µM	
O=C(c1ccccc1)C(Cn1cncn1)C(Sc1ccccc1)c1ccccc1 (configuration not stated)	inconclusive: 8.91 µM [inhibitor, partial curve, poor fit]	
Cc1ccc(C(CNS(=O)(=O)c2ccc(F)cc2C)N2CCN(C)CC2)cc1 (configuration not stated)	inconclusive: 20 µM [inhibitor, partial curve, poor fit]	
Cc1ccc(NC(=O)CSCC(=O)Nc2ccc(S(=O)(=O)N3CCCC3)cc2)cc1	inconclusive: 0.251 µM [inhibitor, full curve, poor fit]	
COc1cc(C(=O)NNC(=S)Nc2ccc(S(N)(=O)=O)cc2)cc(OC)c1OC	inconclusive: 2.82 µM [inhibitor, full curve, poor fit]	
Cc1ccc(/C=N/Nc2ncnc3nc[nH]c23)cc1		inactive: 0.798%

Structure (SMILES)	Potency	activity change, negative = inhibition
Cc1ccc(OC(=O)Nc2ccccc2)cc1	inconclusive: 6.31 µM [activator, single point]	
Cc1ccc(CNC(=O)CSc2c3c(nc4cc(Cl)ccc24)CCCC3)o1	inconclusive: 29.1 µM [inhibitor, single point]	
CCn1nc(C)c(/C=N/NC(=O)c2ccc3c(c2)c(C)c(C)n3Cc2ccccc2)c1C		inactive: -29.6%
CCN(CC)S(=O)(=O)c1cc(C(=O)NC2CCCCC2)ccc1C	inconclusive: 29.1 µM [inhibitor, single point]	
COc1ccc(NS(=O)(=O)c2c(C(=O)N3CCCCCC3)c(C)n(C)c2C)cc1	inconclusive: 1 µM [activator, full curve, poor fit]	
CCOc1ccc(OCC)c(S(=O)(=O)N2CCN(c3cccc(C)c3C)CC2)c1	inconclusive: 1.58 µM [inhibitor, full curve]	
CCOC(=O)C1CCN(S(=O)(=O)c2ccc3c(c2)N(C(C)=O)CCO3)CC1		inactive: -20.1% [at 46.1 µM]
Cc1ccc(Nc2c(-c3ccncc3)nc3ccc(C)cn23)cc1		inactive: 8.79% [at 46.1 µM]
COc1ccccc1OCCC(=O)OCC(=O)NC(=O)NC(C)(C)C	inconclusive: 35.5 µM [activator, single point]	
Cc1cc(C)cc(N(C(=O)CCC(=O)Nc2cc(C)on2)C(C(=O)NC2CCCC2)c2ccco2)c1 (configuration not stated)	active: 11.2 µM	
O=C(Nc1cccnc1)c1ccc(COc2ccccc2Cl)o1	inconclusive: 6.51 µM [inhibitor, partial curve, poor fit]	
COc1ccc(OC)c(CCNC(=O)c2sc3nc4n(c(=O)c3c2C)CCC4)c1		inactive: 16.3% [at 46.1 µM]
CSc1nsc(SC)c1C(=O)Nc1ccc(C(C)(C)C)cc1	active: 11.2 µM	
COC(=O)Cc1c[nH]c2cccc(OCC(O)CN(Cc3ccccc3)C(C)C)c12 (configuration not stated)	inconclusive: 29.1 µM [inhibitor, single point]	
Nc1ncnc2c1nc(Sc1ccc(Cl)cc1)n2[C@H]1O[C@@H]2COP(=O)(O)O[C@H]2[C@@H]1O	inconclusive: 0.251 µM [inhibitor, full curve]	
Nc1ncnc2c1ncn2[C@@H]1O[C@H](COP(=O)(O)OP(=O)(O)OP(=O)(O)OP(=O)(O)OC[C@@H]2O[C@H](n3cnc4c(N)ncnc43)[C@@H](O)[C@H]2O)[C@@H](O)[C@H]1O	inconclusive: 29.1 µM [inhibitor, partial curve, poor fit]	
Nc1n[nH]c(N)c1N=Nc1ccc(Cl)cc1Cl		inactive: -7.59%
CCN1CC2=C(OC(N)=C(C#N)[C@H]2c2ccccc2)/C(=C/c2ccccc2)C1	inconclusive: 35.5 µM [inhibitor, single point]	
CCOC(=O)NC(=O)CSc1nc(C)cc(C)c1C#N		inactive: 0.108%
O=C(Nc1ccccc1Cl)/C(Cl)=C(\Cl)S(=O)c1ccccc1 (configuration not stated)	active: 3.16 µM	
Cc1ccc2nc(-c3ccc(N4C(=N)SC5CS(=O)(=O)CC54)cc3)sc2c1 (configuration not stated)	inconclusive: 3.98 µM [activator, partial curve, poor fit]	

Whole records, looked up by structure.
`CCOc1cc(CNCc2cc(OC)cc(OC)c2)ccc1OC` in the list: Potency: inconclusive: 35.5 µM [inhibitor, single point]
`CCN1CC2=C(OC(N)=C(C#N)[C@H]2c2ccccc2)/C(=C/c2ccccc2)C1` in the list: Potency: inconclusive: 35.5 µM [inhibitor, single point]
`Cc1ccccc1-n1c(SCC(=O)N(C)C2CCS(=O)(=O)C2)nc2ccccc2c1=O` (configuration not stated) in the list: activity change, negative = inhibition: inactive: 17.6% [at 46.1 µM]
